Binding data for 2 substances are collected here from paper PMC6167787.

Amino acid sequences for entries named in this document (tags omitted).
UniProt O14503: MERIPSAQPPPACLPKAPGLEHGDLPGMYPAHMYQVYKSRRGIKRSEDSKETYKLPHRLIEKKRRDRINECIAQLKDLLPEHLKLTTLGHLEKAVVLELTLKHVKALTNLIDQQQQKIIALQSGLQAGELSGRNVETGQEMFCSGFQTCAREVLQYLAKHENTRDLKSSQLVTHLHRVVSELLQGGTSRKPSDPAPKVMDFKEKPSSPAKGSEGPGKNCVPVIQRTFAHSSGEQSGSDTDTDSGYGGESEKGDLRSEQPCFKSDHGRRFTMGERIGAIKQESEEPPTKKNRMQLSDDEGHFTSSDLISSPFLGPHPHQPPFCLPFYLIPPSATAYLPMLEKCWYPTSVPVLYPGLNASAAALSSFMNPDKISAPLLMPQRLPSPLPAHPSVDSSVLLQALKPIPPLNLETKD
UniProt Q13547: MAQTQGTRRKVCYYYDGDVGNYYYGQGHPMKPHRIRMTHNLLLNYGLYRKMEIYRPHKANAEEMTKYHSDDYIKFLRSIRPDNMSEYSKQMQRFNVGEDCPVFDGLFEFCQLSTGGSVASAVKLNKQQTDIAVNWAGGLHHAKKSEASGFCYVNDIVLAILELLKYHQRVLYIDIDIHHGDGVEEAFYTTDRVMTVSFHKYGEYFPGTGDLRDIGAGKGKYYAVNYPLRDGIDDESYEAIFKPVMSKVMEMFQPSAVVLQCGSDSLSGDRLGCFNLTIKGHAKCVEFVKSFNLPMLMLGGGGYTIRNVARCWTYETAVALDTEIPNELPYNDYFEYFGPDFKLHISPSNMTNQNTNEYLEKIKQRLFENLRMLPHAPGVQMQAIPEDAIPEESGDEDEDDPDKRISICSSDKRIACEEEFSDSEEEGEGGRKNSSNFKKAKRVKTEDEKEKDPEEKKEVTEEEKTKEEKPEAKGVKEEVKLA
UniProt Q92769: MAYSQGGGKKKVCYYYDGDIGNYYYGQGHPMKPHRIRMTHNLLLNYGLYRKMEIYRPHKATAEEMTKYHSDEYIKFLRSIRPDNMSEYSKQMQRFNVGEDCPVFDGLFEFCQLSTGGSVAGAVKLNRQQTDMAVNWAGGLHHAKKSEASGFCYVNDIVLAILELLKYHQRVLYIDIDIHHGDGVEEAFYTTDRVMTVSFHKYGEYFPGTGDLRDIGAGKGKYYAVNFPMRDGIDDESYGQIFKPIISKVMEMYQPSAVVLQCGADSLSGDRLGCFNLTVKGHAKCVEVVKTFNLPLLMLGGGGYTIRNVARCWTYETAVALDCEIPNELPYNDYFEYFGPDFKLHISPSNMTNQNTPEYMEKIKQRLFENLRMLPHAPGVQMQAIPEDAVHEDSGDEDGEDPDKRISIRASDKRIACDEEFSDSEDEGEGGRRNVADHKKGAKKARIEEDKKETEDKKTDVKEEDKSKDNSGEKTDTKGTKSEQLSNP

This test deals with Basic helix-loop-helix family member E40 (BHLHE40) (human (endogenous in MDA-MB-231)) (UniProt O14503). As to the kind of experiment: co-IP; reciprocal co-immunoprecipitation/immunoblotting of endogenous proteins in the soluble cellular fraction (Pierce IP Lysis Buffer with protease inhibitors, TrueBlot kit) of MDA-MB-231 EV cells, control or exposed to 1%O2/LG for 4 h. For orientation: A western blot detects proteins with antibodies after separation by electrophoresis.

Results are given in words; binding and its absence hold for the method and conditions named. In cells and extracts the contact can be indirect. Some binding calls cover weakened binding; strength is not graded here.

With “histone deacetylase 1 (HDAC1) (from UniProt Q13547 1-482)”, the binding result was “binds”.

Take “histone deacetylase 2 (HDAC2) (from UniProt Q92769 1-488)”: the binding result is listed as “binds”.
